# Assay results as given in PubChem BioAssay (NCATS).
# Values joined by “and” are separate entries in the source; they are usually repeats but may differ in a detail not shown here. Equal entries are not always repeated. The list shows a part of the results. These are further read-outs of the screen, such as a control signal, another cell line or another target. No call is given for them. For part of these data: The list favours compounds with an active or inconclusive main result. For part of these data: The note in brackets gives the kind of curve behind each potency; many fits are weak.
# Tests used:
# [1] = qHTS Assay for Inhibitors of PDE-IV (AID 607); settings: HEK293 ACTOne CNG channel cells, membrane potential fluorescence; measured here: parental cell counter-screen
# Outline: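 Cell-based read-out of cAMP via a modified cyclic nucleotide-gated channel and membrane potential dye (535/590 nm) in HEK293 cells expressing PDE4 endogenously. Compounds tested up to 22.9 uM final; 100 uM RO 20-1724 reference.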
# [2] = qHTS Assay for Lipid Storage Modulators (AID 1519); settings: Drosophila S3 cells, BODIPY lipid droplet/cell ratio, laser cytometry, cells loaded with oleic acid
# Outline: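 Cells seeded at 5,000 per well were treated with compounds over a concentration series and loaded with oleic acid (400 uM, as added). Lipid droplet fluorescence (488 nm excitation, 500-530 nm channel) was read by laser-scanning cytometry and normalized to 20 uM Triacsin C.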
# [3] = qHTS Validation Assay to Find Inhibitors of Chronic Active B-Cell Receptor Signaling (AID 485345); settings: ABC-DLBCL cells, chronic BCR signaling reporter; measured here: CBR control luciferase (viability counter)
# Outline: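 TMD8 ABC-DLBCL cells stably carrying doxycycline-inducible IkappaBalpha–green luciferase fusion plus unfused red luciferase; compounds 46 uM to 3 nM, 4 h at 37C with doxycycline. Corrected green/red luminescence ratio normalized to 10 uM MG-132 and basal cell wells; curves fitted.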
# [4] = qHTS assay for small molecule antagonists of vitamin D receptor signaling (AID 588541); settings: HEK293T VDR-UAS-bla, beta-lactamase ratio, antagonist mode; measured here: W460 blue channel (cell viability)
# [5] = qHTS assay for small molecule agonists of retinoid X receptor alpha signaling (AID 588544); settings: HEK293T RXRa-UAS-bla, beta-lactamase reporter, 18 h; 530 nm emission
# [6] = qHTS Validation Assay for Iinhibitors of HIV-1 Budding by Blocking the Interaction of PTAP/TSG101 (AID 485342); settings: TSG101-PTAP binding, fluorescence polarization, 4-point titration; measured here: FITC channel readout
# Outline: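 FP read-out: FITC-PTAP peptide, 50 nM final, binding Tsg101 binding domain, 10 uM final; 20 min r.t.; 10 mM HEPES pH 7.5, 0.15 M NaCl, 0.01% Tween 20, 3 mM EDTA, 0.1 mM TCEP.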
# [7] = qHTS assay for small molecule antagonists of retinoid X receptor alpha signaling (AID 588546); settings: HEK293T RXRa-UAS-bla, beta-lactamase ratio, antagonist mode; measured here: W530 green channel, cytotoxicity proxy;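 also: cells stimulated with 9-cis-retinoic acid as agonist; % is scaled to controls: 0 for no effect and ±100 for the full control effect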
# Outline: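 Beta-lactamase reporter inhibition, read as CCF4 fluorescence ratio (ex 405, em 460/530 nm) after 2 h at RT. HEK293T UAS-bla cells, 2500/well, were stimulated with 9-cis-RA at 500 or 100 nM final alongside test compound for 18 h at 37 C.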
# [8] = qHTS Assay for Modulators of Human Peripheral Myelin Protein 22 (PMP22) Expression/Activity (AID 1967); settings: Cell-based PMP22 reporter, dual-color luciferase ratio; measured here: red reporter channel AC50; EF-alpha promoter control reporter in MSC80 mouse Schwann cells
# Outline: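 Mouse MSC80 Schwann line, Pmp22 promoter–CBG68 reporter, EF-alpha–CBR internal control. 24h compound exposure, 37 °C/5% CO2, DMEM + 10% FBS. Readout: corrected green/red luminescence ratio, normalized to untreated cells; concentration-response curves fitted and classified.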
# [9] = S16 Schwann cell PMP22 intronic element beta-lactamase assay (AID 624044); settings: S16 rat Schwann cells, PMP22 element beta-lactamase FRET, 24 h
# Outline: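 Beta-lactamase reporter under a PMP22 intronic regulatory element in stable S16 rat Schwann cells; 24 h compound exposure. 460 nm blue signal normalized between DMSO (0%) and potassium clavulanate, with 535 nm FRET tracking viability; curves classed by r2 and response.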
# [10] = A High-Content qHTS Against Drug Library for the Identification of Small Molecules that Inhibit DYT1 Early Onset Primary Dystonia-Associated Cell Pathology (AID 1645839); settings: HEK293 Flp-In EGFP-delE TorsinA, punctate imaging, 48 h; measured here: cell count cytotoxicity
# Outline: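 Cells were seeded and left for 24 h, then dosed with compound alongside tetracycline induction of mutant EGFP-TorsinA. They were incubated for 48 h, fixed in 4% paraformaldehyde, permeabilized and imaged for mislocalization (%pathology) and cell count.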
# [11] = qHTS for identification of novel therapeutic agents for treatment of microphthalmiaassociated transcription factor (MiT) renal cell carcinoma (RCC) (AID 1963991); settings: CellTiter-Glo, 48 h; for z-score: stronger effect = lower value
# Outline: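 Curves over 11 concentrations were fitted to CellTiter-Glo luminescence, scaled between empty wells (0%) and DMSO (100%) viability. Cells were UOK109, UOK124 and UOK145 TFE3-fusion RCC lines at 500/well, exposed 48 hours at 37 C.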
# [12] = measured here: cell count channel max response
# [13] = measured here: cell number channel AC50
# [14] = measured here: lipid channel max response
# [15] = measured here: lipid (BODIPY) channel AC50
compound,measurement,setting,value
COc1cccc(NC(=O)/C=C\c2ccc(Cl)cc2)c1,AC50,[1],"15.8 µM [rising, single point]"
same,max response,[2]; [12],48.6%
same,AC50,[2]; [13],"7.94 µM [rising, partial curve, poor fit]"
same,max response,[2]; [14],52%
Cc1nc2cnc(OCc3ccccc3)nc2n(CCc2ccccc2)c1=O,AC50,[1],"12.6 µM [rising, partial curve]"
same,max response,[2]; [12],9.14%
same,AC50,[2]; [15],"2.51 µM [rising, partial curve, poor fit]"
same,max response,[2]; [14],10%
CCCCCCCCC(=O)NCc1cc(OC)c(O)cc1I,AC50,[1],"20 µM [rising, single point]"
same,max response,[2]; [12],48.1%
same,AC50,[2]; [15],"35.5 µM [rising, partial curve, poor fit]"
same,max response,[2]; [14],78.3%
CCCCC[C@H](O)C=C[C@H]1[C@H](O)CC(=O)[C@H]1CCCCCCC(=O)O,AC50,[1],"5.01 µM [rising, partial curve, poor fit]"
same,max response,[2]; [12],27.1%
same,AC50,[2]; [15],"15.8 µM [rising, single point]"
same,max response,[2]; [14],33.7%
CC1C(=O)N(C)C(=O)c2nc[nH]c21 (configuration not stated),max response,[2]; [12],-39.3%
same,AC50,[2]; [13],"1.58 µM [falling, full curve, poor fit]"
same,max response,[2]; [14],-41.7%
same,AC50,[3],"23.1 µM [falling, single point]"
COc1cc(C=O)ccc1O,max response,[2]; [12],9.31%
same,AC50,[2]; [15],"14.1 µM [rising, partial curve, poor fit]"
same,max response,[2]; [14],10.7%
same,AC50,[4],"0.282 µM [rising, full curve, poor fit]"
same,max response,[5],7.64%
COc1cccc(Cn2c(=O)c(-c3ccccc3)nc3cnc(N(C)C)nc32)c1,AC50,[1],"0.0631 µM [rising, single point]"
same,max response,[2]; [12],0.719%
same,AC50,[2]; [15],"0.316 µM [rising, full curve]"
same,max response,[2]; [14],1.38%
CN1Cc2c(N)cccc2C(c2ccccc2)C1 (configuration not stated),max response,[2]; [12],15.8%
same,AC50,[2]; [15],"10 µM [rising, partial curve, poor fit]"
same,max response,[2]; [14],31%
same,AC50,[6],"35.5 µM [falling, partial curve]"
CC(C)=CCC/C(C)=C/CC/C(C)=C/CO,max response,[2]; [12],24.7% and 19.4%
same,AC50,[2]; [15],"35.5 µM [rising, partial curve] and 12.6 µM [rising, full curve, poor fit]"
same,max response,[2]; [14],32.5% and 32.8%
same,max response,[5],-14.9%
O=c1c(O)c(-c2ccc(O)cc2O)oc2cc(O)cc(O)c12,max response,[2]; [12],42.3% and 6.24%
same,AC50,[2]; [15],"0.0224 µM [rising, full curve, poor fit]"
same,max response,[2]; [14],26.5% and 25.8%
same,max response,[5],63.7%
same,max response,[7],43.2%
O=C(O)CCc1nc(-c2ccccc2)c(-c2ccccc2)o1,AC50,[1],"10 µM [rising, partial curve] and 7.94 µM [rising, partial curve]"
same,max response,[2]; [12],24.4% and 58.5%
same,AC50,[2]; [15],"22.4 µM [rising, partial curve, poor fit]"
same,max response,[2]; [14],46% and 60%
same,AC50,[8],"84.9 µM [falling, single point]"
CN(C)C(=O)Nc1ccc(Cl)c(Cl)c1,AC50,[9]; measured here: 530 nm viability channel,"1.26 µM [falling, full curve, poor fit]"
C(=C\c1ccccc1)/CN1CCN(C(c2ccccc2)c2ccccc2)CC1,AC50,[10],"35.5 µM [falling, single point]"
O=NN(CCCl)C(=O)NCCCl,AC50,[10],"28.2 µM [rising, partial curve, poor fit]"
CC(C)NCC(O)COc1ccc(COCCOC(C)C)cc1 (configuration not stated),max response,[2]; [12],58.2%
same,max response,[2]; [14],60.6%
same,AC50,[9]; measured here: 460 nm blue channel,"0.501 µM [falling, full curve, poor fit]"
same,z-score,"[11]; TFE3-RCC UOK109 viability, measured here: UOK109 Z-AUC",0.245
same,z-score,"[11]; TFE3-RCC viability, measured here: UOK124 Z-AUC",0.116
same,AC50,"[11]; TFE3-RCC viability, measured here: UOK124 cell viability","0.0209 µM [rising, full curve, poor fit]"
same,z-score,"[11]; TFE3-RCC viability, measured here: UOK145 Z-AUC",2.93

# Already shown: an excerpt of the list.
compound,measurement,setting,value
COc1cccc(Cn2c(=O)c(-c3ccccc3)nc3cnc(N(C)C)nc32)c1,AC50,[2]; [15],"0.316 µM [rising, full curve]"
same,max response,[2]; [14],1.38%
CN1Cc2c(N)cccc2C(c2ccccc2)C1 (configuration not stated),max response,[2]; [12],15.8%
same,AC50,[2]; [15],"10 µM [rising, partial curve, poor fit]"
